Test [1] concerns the target T1, MOV10 (Moloney leukemia virus 10) RNA helicase (mouse (endogenous in testis)) (UniProt P23249).
T1 sequence: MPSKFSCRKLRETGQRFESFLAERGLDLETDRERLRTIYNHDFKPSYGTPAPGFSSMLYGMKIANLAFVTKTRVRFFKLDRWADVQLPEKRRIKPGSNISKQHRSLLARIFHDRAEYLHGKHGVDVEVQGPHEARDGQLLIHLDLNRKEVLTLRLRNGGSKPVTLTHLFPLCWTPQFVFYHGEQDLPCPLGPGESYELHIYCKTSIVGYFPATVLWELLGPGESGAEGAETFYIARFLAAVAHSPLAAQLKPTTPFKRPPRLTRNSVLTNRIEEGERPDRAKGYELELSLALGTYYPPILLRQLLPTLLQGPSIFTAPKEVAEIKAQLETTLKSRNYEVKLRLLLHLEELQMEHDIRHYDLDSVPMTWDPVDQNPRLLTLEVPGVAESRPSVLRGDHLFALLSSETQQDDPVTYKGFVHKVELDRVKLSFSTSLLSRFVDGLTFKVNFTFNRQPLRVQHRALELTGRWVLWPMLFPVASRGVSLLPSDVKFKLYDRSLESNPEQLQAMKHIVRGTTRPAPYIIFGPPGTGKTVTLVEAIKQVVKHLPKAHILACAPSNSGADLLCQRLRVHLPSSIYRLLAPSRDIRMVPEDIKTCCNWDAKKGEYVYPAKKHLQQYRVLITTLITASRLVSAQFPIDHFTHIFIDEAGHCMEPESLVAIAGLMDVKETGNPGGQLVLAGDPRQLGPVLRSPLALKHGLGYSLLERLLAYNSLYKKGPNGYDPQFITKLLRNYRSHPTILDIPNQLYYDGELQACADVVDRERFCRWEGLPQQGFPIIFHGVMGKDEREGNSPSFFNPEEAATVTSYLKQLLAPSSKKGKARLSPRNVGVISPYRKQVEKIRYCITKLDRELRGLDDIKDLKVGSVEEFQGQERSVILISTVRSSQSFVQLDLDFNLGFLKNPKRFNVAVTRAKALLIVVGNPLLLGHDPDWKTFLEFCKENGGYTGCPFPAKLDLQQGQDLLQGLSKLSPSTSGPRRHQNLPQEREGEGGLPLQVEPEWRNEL
The test can be described thus: co-IP; IP of mouse testis lysate (RIPA buffer) with anti-MOV10 or anti-UPF1 antibody on protein G Dynabeads, washed three times with RIPA, Western blot; normal rabbit IgG and Mov10-/- testis as controls.

Protein sequences, listed by entry. Tags and fused reporters are not part of them.
UniProt Q9EPU0: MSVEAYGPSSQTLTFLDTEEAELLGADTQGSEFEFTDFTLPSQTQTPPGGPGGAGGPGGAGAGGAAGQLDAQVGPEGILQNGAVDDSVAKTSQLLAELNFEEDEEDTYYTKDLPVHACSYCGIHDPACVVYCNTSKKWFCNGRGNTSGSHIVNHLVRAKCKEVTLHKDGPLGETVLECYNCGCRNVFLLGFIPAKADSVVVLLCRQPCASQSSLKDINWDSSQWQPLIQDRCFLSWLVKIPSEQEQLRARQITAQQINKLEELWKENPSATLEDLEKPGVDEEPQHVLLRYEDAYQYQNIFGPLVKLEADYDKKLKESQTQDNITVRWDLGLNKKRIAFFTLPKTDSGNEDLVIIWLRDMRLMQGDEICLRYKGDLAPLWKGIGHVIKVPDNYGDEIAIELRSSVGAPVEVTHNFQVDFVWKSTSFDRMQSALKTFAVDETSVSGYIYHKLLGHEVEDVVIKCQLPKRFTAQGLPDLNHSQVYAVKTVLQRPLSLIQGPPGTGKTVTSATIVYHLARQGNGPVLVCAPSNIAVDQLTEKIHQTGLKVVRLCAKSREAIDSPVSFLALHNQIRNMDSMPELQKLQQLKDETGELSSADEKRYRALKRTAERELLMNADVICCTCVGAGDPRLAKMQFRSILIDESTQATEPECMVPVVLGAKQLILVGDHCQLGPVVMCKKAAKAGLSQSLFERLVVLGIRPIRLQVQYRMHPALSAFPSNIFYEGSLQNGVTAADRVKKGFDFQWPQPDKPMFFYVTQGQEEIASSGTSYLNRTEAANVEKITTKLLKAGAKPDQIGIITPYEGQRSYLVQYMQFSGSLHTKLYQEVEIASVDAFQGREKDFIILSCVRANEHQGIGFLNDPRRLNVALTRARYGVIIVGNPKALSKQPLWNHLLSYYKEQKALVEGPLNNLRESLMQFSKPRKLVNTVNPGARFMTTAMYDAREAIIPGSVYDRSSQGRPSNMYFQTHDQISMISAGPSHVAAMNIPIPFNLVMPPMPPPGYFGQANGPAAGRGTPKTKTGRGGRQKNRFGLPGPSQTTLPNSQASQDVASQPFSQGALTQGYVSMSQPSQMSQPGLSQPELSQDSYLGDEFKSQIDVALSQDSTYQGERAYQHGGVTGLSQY

Test [2] concerns the target UPF1 (mouse (endogenous in testis)) (UniProt Q9EPU0). The test is described as above.

Among the data in PMC10174503 are binding values, retold here.

Results are given in words; binding and its absence hold for the method and conditions named. Binding seen in cells or lysates may run through a third protein. Some binding calls cover weakened binding; strength is not graded here.

With UPF1 (from UniProt Q9EPU0 1-1124), in test [1], the binding result is reported as “binds”.

B1: MOV10 (Moloney leukemia virus 10) RNA helicase (protein, UniProt P23249 1-1004)
chain: T1 sequence
For the molecule B1, in test [2], the binding entry is listed as “binds”.
